Source: the supplement of paper PMC11732987, “Enantioselective OTUD7B fragment discovery through chemoproteomics screening and high-throughput optimisation” (Communications Chemistry, 2025)
The list shows a part of the results. The data scatter; read single values as rough.

By UniProt entry, the sequences of proteins in these tests, tags left out. Where a name states a change or a piece, a line headed by the entry shows the natural chain unless it says otherwise. Residues count along the entry.
UniProt Q6UB99: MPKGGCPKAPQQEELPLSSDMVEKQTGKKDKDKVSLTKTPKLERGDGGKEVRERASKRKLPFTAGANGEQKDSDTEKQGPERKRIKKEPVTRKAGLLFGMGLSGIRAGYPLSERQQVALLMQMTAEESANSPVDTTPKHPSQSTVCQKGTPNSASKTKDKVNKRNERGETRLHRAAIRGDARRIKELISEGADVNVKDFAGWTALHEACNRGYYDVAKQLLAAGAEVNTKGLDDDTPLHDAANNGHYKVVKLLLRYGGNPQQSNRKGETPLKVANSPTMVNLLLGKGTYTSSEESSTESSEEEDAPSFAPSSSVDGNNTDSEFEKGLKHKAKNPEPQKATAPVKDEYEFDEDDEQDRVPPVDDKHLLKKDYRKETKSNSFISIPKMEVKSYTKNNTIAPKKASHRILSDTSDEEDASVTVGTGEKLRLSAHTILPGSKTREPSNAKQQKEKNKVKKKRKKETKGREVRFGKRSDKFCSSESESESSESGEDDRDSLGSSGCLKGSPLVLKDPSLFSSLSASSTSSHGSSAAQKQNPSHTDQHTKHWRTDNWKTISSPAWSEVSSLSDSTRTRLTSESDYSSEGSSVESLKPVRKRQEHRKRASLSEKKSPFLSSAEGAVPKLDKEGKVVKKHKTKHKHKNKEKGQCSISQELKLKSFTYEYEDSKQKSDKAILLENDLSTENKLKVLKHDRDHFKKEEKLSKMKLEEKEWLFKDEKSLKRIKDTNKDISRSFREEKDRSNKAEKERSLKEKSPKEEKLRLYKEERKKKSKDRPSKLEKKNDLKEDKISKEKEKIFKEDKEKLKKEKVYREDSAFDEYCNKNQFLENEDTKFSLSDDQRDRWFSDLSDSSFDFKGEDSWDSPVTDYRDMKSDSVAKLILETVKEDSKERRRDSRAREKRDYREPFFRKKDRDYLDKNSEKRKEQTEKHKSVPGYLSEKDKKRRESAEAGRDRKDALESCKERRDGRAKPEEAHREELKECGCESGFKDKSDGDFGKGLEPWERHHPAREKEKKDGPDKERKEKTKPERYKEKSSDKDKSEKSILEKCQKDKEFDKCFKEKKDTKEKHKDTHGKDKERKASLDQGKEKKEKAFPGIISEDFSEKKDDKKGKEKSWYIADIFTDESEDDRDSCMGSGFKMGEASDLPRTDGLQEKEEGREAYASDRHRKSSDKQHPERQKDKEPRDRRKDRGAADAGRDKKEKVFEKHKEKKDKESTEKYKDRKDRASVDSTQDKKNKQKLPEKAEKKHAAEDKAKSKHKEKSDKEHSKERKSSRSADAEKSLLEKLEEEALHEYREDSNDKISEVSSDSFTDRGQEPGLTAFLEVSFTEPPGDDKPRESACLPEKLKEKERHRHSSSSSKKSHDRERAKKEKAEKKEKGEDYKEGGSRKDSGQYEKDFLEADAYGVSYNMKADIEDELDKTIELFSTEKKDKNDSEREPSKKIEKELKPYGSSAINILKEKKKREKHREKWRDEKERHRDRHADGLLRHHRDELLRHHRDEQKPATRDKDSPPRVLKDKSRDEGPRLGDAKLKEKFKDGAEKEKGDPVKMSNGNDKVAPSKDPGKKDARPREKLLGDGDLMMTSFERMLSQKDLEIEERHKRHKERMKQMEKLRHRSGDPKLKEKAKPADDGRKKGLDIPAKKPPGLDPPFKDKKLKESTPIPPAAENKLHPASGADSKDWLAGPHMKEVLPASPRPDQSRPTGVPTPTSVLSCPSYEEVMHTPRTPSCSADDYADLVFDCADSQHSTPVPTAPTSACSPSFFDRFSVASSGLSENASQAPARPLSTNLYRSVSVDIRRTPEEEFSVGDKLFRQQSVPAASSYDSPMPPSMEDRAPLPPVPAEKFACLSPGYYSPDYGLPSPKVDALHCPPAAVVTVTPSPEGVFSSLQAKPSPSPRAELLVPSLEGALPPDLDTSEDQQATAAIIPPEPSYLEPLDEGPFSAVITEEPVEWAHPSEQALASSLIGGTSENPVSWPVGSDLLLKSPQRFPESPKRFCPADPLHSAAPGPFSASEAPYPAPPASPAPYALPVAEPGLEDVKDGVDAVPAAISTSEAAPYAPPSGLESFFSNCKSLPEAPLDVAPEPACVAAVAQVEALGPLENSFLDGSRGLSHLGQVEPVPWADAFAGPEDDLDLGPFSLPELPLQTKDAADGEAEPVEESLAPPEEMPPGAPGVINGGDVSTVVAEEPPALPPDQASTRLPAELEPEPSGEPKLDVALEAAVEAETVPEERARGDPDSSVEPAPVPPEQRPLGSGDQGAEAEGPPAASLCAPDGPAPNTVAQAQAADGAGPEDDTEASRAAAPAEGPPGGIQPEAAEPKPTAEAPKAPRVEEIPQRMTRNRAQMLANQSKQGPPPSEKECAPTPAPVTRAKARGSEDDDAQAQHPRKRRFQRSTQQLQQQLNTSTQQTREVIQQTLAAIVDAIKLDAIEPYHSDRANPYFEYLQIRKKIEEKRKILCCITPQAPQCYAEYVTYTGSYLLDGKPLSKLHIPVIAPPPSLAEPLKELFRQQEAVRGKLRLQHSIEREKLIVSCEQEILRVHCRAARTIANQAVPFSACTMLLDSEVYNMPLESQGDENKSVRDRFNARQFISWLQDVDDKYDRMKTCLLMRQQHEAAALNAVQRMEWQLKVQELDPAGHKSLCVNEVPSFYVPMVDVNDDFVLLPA
UniProt Q10567: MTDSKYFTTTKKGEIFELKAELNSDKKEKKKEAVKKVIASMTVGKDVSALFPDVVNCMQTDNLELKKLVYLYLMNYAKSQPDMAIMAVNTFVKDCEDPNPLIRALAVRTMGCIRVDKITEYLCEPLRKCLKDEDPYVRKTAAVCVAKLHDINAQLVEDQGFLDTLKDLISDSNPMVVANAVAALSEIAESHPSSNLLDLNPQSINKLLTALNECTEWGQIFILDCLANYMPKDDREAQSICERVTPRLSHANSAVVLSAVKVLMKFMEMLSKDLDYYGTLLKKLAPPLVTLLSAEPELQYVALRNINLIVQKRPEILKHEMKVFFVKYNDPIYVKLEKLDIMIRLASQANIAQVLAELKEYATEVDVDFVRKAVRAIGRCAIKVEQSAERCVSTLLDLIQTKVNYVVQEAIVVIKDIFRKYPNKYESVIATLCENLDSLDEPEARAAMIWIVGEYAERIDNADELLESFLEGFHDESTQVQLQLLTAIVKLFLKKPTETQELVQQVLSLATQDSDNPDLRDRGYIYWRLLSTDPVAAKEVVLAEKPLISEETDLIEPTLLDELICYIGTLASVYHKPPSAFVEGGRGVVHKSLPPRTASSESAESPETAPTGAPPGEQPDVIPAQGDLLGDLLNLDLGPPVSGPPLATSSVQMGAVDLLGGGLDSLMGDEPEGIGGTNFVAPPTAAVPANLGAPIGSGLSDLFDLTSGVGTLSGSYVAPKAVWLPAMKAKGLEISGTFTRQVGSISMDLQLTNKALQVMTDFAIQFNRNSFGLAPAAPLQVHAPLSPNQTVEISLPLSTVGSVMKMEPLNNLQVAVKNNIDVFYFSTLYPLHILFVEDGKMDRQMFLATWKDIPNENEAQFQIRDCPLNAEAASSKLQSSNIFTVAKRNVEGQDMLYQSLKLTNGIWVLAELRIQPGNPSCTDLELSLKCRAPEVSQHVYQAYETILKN
UniProt Q9UPS8, 447-467: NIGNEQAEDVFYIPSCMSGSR
UniProt A7KAX9, 1965-1985: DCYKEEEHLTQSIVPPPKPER
UniProt Q8N3C0, whole entry, looked up: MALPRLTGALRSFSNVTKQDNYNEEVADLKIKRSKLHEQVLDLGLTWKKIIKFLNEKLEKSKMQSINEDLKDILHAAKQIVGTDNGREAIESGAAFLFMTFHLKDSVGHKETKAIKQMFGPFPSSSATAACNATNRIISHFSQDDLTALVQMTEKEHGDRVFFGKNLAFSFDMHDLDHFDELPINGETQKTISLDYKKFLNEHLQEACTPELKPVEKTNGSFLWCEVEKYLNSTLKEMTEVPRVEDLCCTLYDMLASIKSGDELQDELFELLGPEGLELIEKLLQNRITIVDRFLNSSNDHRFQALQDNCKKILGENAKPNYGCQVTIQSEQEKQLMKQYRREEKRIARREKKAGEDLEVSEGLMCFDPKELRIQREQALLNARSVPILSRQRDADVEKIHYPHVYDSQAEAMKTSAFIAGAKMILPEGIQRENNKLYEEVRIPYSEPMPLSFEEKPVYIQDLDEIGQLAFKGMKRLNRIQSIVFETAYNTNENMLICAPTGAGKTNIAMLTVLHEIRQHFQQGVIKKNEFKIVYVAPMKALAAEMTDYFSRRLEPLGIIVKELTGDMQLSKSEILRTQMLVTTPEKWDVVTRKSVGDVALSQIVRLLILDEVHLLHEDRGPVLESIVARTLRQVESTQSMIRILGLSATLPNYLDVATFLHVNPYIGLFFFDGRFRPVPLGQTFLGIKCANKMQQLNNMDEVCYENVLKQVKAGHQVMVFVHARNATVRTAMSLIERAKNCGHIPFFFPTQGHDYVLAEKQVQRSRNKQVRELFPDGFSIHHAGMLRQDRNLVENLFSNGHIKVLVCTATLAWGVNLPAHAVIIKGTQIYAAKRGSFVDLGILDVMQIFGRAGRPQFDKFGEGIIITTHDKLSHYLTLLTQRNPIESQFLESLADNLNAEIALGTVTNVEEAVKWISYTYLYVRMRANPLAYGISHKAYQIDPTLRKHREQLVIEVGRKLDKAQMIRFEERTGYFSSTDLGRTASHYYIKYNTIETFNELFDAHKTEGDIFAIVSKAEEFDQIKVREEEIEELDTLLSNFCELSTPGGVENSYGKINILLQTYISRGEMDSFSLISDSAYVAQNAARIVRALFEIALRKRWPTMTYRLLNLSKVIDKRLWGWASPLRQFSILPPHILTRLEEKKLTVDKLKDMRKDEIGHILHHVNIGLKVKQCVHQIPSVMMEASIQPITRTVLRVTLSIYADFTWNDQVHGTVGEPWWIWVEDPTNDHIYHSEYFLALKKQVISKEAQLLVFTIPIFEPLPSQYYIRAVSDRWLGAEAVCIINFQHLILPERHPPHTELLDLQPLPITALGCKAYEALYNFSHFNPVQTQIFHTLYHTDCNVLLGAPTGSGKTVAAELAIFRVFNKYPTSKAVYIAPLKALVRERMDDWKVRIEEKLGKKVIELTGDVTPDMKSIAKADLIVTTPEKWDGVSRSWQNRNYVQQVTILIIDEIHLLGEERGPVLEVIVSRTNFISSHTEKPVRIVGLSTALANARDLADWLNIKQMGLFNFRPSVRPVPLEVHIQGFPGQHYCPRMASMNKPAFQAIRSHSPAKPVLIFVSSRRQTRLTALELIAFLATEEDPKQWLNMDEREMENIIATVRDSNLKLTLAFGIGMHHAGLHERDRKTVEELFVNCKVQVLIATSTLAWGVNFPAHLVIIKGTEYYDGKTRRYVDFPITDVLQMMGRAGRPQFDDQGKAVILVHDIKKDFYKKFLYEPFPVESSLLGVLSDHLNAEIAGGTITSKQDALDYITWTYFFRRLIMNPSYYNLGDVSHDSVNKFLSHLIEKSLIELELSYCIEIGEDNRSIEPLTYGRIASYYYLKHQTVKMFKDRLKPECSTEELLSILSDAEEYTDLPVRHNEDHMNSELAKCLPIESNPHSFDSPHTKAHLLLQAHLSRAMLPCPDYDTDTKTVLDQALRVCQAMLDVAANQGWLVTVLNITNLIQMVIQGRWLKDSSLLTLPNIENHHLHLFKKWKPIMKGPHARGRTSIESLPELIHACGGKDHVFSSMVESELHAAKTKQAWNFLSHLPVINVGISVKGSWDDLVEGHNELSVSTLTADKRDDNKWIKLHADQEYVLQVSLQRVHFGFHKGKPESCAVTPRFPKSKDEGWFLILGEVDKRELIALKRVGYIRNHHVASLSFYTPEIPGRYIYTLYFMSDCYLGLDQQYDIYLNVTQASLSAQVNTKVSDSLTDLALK
UniProt P20073: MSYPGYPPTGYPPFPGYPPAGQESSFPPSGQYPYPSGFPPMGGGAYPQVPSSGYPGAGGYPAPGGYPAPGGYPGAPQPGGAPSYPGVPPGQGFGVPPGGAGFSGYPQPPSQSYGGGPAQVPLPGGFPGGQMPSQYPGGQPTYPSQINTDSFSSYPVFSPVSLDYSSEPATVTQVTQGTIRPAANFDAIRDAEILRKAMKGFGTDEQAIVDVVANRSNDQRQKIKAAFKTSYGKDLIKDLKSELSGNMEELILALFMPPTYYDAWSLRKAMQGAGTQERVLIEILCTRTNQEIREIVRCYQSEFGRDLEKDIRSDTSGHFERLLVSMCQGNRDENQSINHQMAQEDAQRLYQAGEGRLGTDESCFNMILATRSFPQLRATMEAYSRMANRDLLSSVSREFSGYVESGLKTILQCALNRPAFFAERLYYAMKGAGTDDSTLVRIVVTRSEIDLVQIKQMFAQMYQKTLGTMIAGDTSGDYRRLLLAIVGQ

compound: ClCC(=O)N[C@H]1CCCc2ccccc12; assay: log2 mean competition ratio of IA-DTB cysteine labelling (DMSO/compound) (log2 ratio); higher = stronger cysteine engagement by compound; settings: 50 µM; treatment time: 4 h; cell line lysate: HEK293T
Experimental: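 IA-DTB competitive cysteine chemoproteomics in HEK293T RIPA lysate. Lysates were treated with compound 29 or 30 at 50 or 200 µM for 4 h, then IA-DTB (500 µM, 1 h), trypsin-digested, NeutrAvidin-enriched and analysed by diaPASEF. Competition ratio = intensity DMSO / intensity compound (n=4 treated, n=64 DMSO); binding: mean log2 CR ≥ 1 and p ≤ 0.05 plus QC filters. Target is the cysteine site.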

Target	log2 mean competition ratio
ANKRD11 C146 (UniProt Q6UB99)	-0.0583
ASCC1 C189 (UniProt Q8N9N2)	-0.639
ANKRD27 C277 (UniProt Q96NW4)	-0.0443
APAF1 C633 (UniProt O14727)	-0.132
ARFGEF3 C1018	0.159
ARID1A C1874 (UniProt O14497)	0.261
ARMC8 C661	-0.283
AP1B1 C921 (UniProt Q10567)	-0.0646
ARIH1 C161 (UniProt Q9Y4X5)	-0.129
ANKRD26 C462 (UniProt Q9UPS8)	0.82
ANKLE2 C350 (UniProt Q86XL3)	0.214
ARHGAP29 C518 (UniProt Q52LW3)	0.142
ARHGAP32 C1966 (UniProt A7KAX9)	-0.751
ASCC3 C2101 (UniProt Q8N3C0)	-0.036
AP1G1 C353	0.566
ARHGEF26 C566	0.00821
ANXA7 C285 (UniProt P20073)	0.128
ASCC3 C1906 (UniProt Q8N3C0)	-0.537
ARAP1 C900 (UniProt Q96P48)	-0.0312
AQR C997 (UniProt O60306)	-0.363

same assay, conditions: 200 µM; treatment time: 4 h; cell line lysate: HEK293T

Target	log2 mean competition ratio
ANKRD11 C146 (UniProt Q6UB99)	-0.505
ASCC1 C189 (UniProt Q8N9N2)	-0.244
ANKRD27 C277 (UniProt Q96NW4)	0.151
APAF1 C633 (UniProt O14727)	-0.307
ARFGEF3 C1018	-0.117
ARID1A C1874 (UniProt O14497)	-0.537
ARMC8 C661	0.399
AP1B1 C921 (UniProt Q10567)	-0.0858
ARIH1 C161 (UniProt Q9Y4X5)	-0.331
ANKRD26 C462 (UniProt Q9UPS8)	0.177
ANKLE2 C350 (UniProt Q86XL3)	0.166
ARHGAP29 C518 (UniProt Q52LW3)	0.0818
ARHGAP32 C1966 (UniProt A7KAX9)	-0.0781
ASCC3 C2101 (UniProt Q8N3C0)	-0.318
AP1G1 C353	-0.196
ARHGEF26 C566	0.524
ANXA7 C285 (UniProt P20073)	-0.233
ASCC3 C1906 (UniProt Q8N3C0)	-0.475
ARAP1 C900 (UniProt Q96P48)	0.339
AQR C997 (UniProt O60306)	-0.237
